This test can be described thus: qHTS Assay to Find Inhibitors of Chronic Active B-Cell Receptor Signaling. The conditions noted are these: ABC-DLBCL IkBa-CBG/CBR reporter, luminescence ratio (green luciferase fused to IkBa over red control in TMD8 lymphoma cells), 4 h. In short, it runs like this:
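Doxycycline induced both beetle luciferases in TMD8 lymphoma cells; IKK-driven degradation limits the IkappaBalpha-fused green signal, while red luminescence normalises for cell number and nonspecific effects. Compounds tested up to 46 uM, 4 hrs.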

[1] abbreviates: measured here: CBR red luminescence, cell number.
The mark [2] stands for this setting: measured here: IkBa-CBG green luminescence.

The other results are listed elsewhere or left out. Shown are side measurements of this screen, not its main read-out; they come without a call. Most of these compounds were active or inconclusive in the main read-out, so they are no random draw. Words in brackets tell the shape of the fitted curve; partial curves, single points and poor fits give uncertain potencies.

Turning to `COc1ccc(/C=N/NC(=O)COc2ccc(Cl)cc2Cl)cc1Cn1nc(C)cc1C`, under setting [1], the AC50 was 16.4 µM [falling, partial curve]. Still for that read-out and setting: under `COc1ccccc1CN1CCN(Cc2ccc3ccccc3c2)CC1` stands 1.41 µM [rising, full curve, poor fit]; under `Nc1nc2ccc(C(=O)Nc3ccc(N4CCOCC4)cc3)cc2s1`, 7.31 µM [falling, partial curve]. On to `O=C(Nc1ccccn1)c1ccc(S(=O)(=O)N2CCCCCC2)cc1`, for which, under setting [1], the concentration at half-maximal activity (AC50) is 16.4 µM [falling, single point]. On the same count and under the same terms, next, `CCC(CC)c1nc(C(N)=O)c2[nH]c(=O)n(-c3ccc(OC)c(OC)c3)c2n1`: 20 µM [rising, partial curve, poor fit]; `Cc1c(NS(=O)(=O)c2ccccc2F)c(=O)n(-c2ccccc2)n1C`: 6.31 µM [falling, single point]; `Cc1cc(C)n2nc(SCc3ncc(-c4ccccc4)o3)nc2n1`: 3.66 µM [rising, full curve, poor fit].

With `CCc1ccc(NC(=O)c2onc(C)c2Cl)cc1`, the concentration at half-maximal activity (AC50) under setting [1] is 29.1 µM [falling, single point].

As to `CSc1ccc(/C=N/Nc2ccc(Cl)c(C(=O)O)c2)cc1`, the concentration at half-maximal activity (AC50) under setting [1] is 0.891 µM [falling, full curve].

Regarding `Cc1cc(=O)[nH]c(SCCCOc2ccccc2Cl)n1`, the AC50 under setting [1] is 29.1 µM [falling, single point]. For `Cc1csc(Nc2nc(N)c(C(=O)Nc3ccccc3)o2)n1`, the AC50 was 14.1 µM [falling, partial curve, poor fit] under setting [1] and 11.2 µM [rising, partial curve, poor fit] under setting [2]. On to `Nc1[nH]ncc1-c1ccccc1`, for which the half-maximal activity concentration (AC50) under setting [1] is 35.5 µM [falling, single point].

As to `CC1=C(C(=O)OCc2ccc3c(c2)OCO3)C(c2ccccc2OCc2ccccc2)NC(=O)N1` (centres undefined), the AC50 under setting [1] is 25.9 µM [falling, partial curve, poor fit]. On to `CC1(c2ccccc2Cl)NC(=O)N(CC(=O)NC(=O)NCc2ccco2)C1=O` (centres undefined), for which the AC50 under setting [1] is 0.794 µM [rising, full curve, poor fit]. Still for that read-out and setting: next, `CCOC(=O)C1=C(C)N=C2SC(CC)C(=O)N2C1c1cccc(F)c1` (centres undefined): 9.2 µM [falling, partial curve, poor fit]. As for `COc1cccc(CC(=O)Nc2ncc(C)s2)c1`, the AC50 under setting [2] is 17.8 µM [rising, partial curve, poor fit]. As to `O=C(CNC(=O)c1cc(Cl)cc([N+](=O)[O-])c1)OCC(=O)N1CCCCC1`, the AC50 under setting [1] was 2.91 µM [rising, partial curve, poor fit]. The same measure, in the same setting: next, `Cc1ccc(CNC(=O)COC(=O)CSc2ccc(Br)cc2C)cc1`: 6.51 µM [falling, single point]. Regarding `CCC/C(O)=C1\C(=O)CCCC1=NCCc1c(C)[nH]c2ccc(OC)cc12`, the AC50 under setting [2] is 15.8 µM [rising, partial curve, poor fit]. With `O=C1CCCC2=C1C(c1ccc(Cl)cc1)C1C(=O)c3ccccc3C1=N2` (centres undefined), the concentration at half-maximal activity (AC50) under setting [1] was 15.8 µM [falling, single point]. Same read-out and setting: under `Cc1cccc2nc(COc3ccc4ccccc4c3Br)cn12` stands 35.5 µM [falling, single point]. Still for that read-out and setting: under `FC(F)(F)c1cc(-c2ccco2)nc(N2CCN(c3ccccc3)CC2)n1` stands 13 µM [rising, partial curve, poor fit]; under `C[C@H](NC(=O)c1[nH]cnc1C(=O)Nc1ccc(Cl)cc1)c1ccccc1`, 29.1 µM [rising, single point]; under `C1COCCNCCOCCOCCN1`, 1 µM [falling, partial curve, poor fit].

As for `CCC1=NN(C(=O)c2ccc(Cl)cc2)C(O)(c2ccc(C)cc2)C1` (centres undefined), under setting [1], the half-maximal activity concentration (AC50) is 10 µM [falling, partial curve]. In the case of `O=C1CSc2ccc(S(=O)(=O)N3CCN(c4ccccc4)CC3)cc2N1`, the concentration at half-maximal activity (AC50) under setting [1] was 12.6 µM [falling, single point]. On the same count and under the same terms, under `CCOc1ccc2oc(C(=O)N(C)CCc3ccc(OC)c(OC)c3)c(C)c2c1` stands 13 µM [rising, partial curve, poor fit]; under `CC(C)CCNC(=O)C1CC(c2cccc(F)c2)=NO1` (centres undefined), 7.94 µM [rising, partial curve, poor fit]. On the same count and under the same terms, under `COc1ccc(-c2cc(C(=O)NCC(C)C)no2)cc1` stands 0.291 µM [falling, full curve, poor fit]; under `Cc1ccccc1-c1cc(C(=O)Nc2nc3c(s2)CCCC3)c2ccccc2n1`, 7.08 µM [falling, partial curve, poor fit]. Turning to `O=C(/C=C/c1ccc(S(=O)(=O)N2CCOCC2)cc1)NC(=S)Nc1ccc(Cl)cc1Cl`, under setting [1], the half-maximal activity concentration (AC50) was 14.1 µM [rising, partial curve, poor fit]. Consider `CCOC(=O)c1csc(N/N=C2\CCCc3ccccc32)n1`, for which the AC50 under setting [1] was 3.98 µM [rising, partial curve, poor fit]. The same measure, in the same setting: under `COc1ccccc1C1CCN(C(=O)c2cccc([N+](=O)[O-])c2)CC1` stands 12.6 µM [falling, single point]. As for `COc1ccc2c(-c3ccccc3)cc(SCC(=O)N(C)C)nc2c1`, the AC50 under setting [1] was 22.4 µM [falling, single point]. With `CCOC(=O)N1CCC(N(CCN(C)C)C(=S)Nc2ccc(OCC)cc2)CC1`, under setting [1], the half-maximal activity concentration (AC50) was 25.1 µM [rising, single point]. On the same count and under the same terms, under `OCCNc1nc(NCCC2=CCCCC2)nc(N2CCOCC2)n1` stands 1.78 µM [rising, partial curve, poor fit]. On the same count and under the same terms, next, `CCOc1cc(C(=O)CSc2nnc(CNc3ccc(Cl)cc3)o2)ccc1NC(=O)CC`: 3.16 µM [falling, single point]; `CC(C)[C@H](NS(=O)(=O)c1ccc2c(c1)OCCO2)C(=O)OCC(=O)Nc1ccccc1`: 14.6 µM [falling, partial curve]; `CCn1c(SCC(=O)Nc2nc3ccccc3s2)nc2c(c1=O)SC(C)C2` (centres undefined): 17.8 µM [falling, single point]. As to `CCOc1ccc(N2CC(C(=O)Nc3cccnc3)CC2=O)cc1` (centres undefined), the AC50 under setting [1] is 3.98 µM [rising, full curve, poor fit]. Same read-out and setting: under `CCOC(=O)c1sc(=S)n(-c2ccc(F)c(F)c2)c1N` stands 4.61 µM [falling, single point]; under `COc1ccc(CNC(=O)C(CC(C)C)NC(=O)c2ccccc2C)cc1` (centres undefined), 0.501 µM [rising, full curve, poor fit].

With `O=C(CN1C(=O)CC(c2ccco2)Sc2ccccc21)NC1CCCCC1` (centres undefined), the AC50 under setting [1] is 3.98 µM [falling, full curve, poor fit]. `Cc1cccc(NC(=O)c2cc3c([nH]c4ccccc43)c(C)n2)c1C`: the AC50 under setting [1] was 8.2 µM [falling, partial curve]. On the same count and under the same terms, under `O=C(OC1CCCCC1)c1ccc(NC(=O)c2ccco2)cc1` stands 0.291 µM [rising, full curve, poor fit]; under `COCCCn1c(=O)/c(=C\c2ccccc2OC(C)C)s/c1=C(/C#N)C(=O)Nc1ccc(C(=O)O)cc1`, 7.94 µM [falling, partial curve]; under `CCOc1ccc2nc(NC(=O)c3ccc(OCC4CCCO4)cc3)sc2c1` (centres undefined), 13 µM [falling, partial curve, poor fit]. The same measure, in the same setting: under `O=C(CN1C(=O)c2ccccc2S1(=O)=O)NCCc1ccc(F)cc1` stands 0.326 µM [rising, full curve, poor fit]; under `Brc1cccc(OCCSc2ncccn2)c1`, 11.2 µM [rising, partial curve, poor fit]. Still for that read-out and setting: under `Cn1cccc1C(=O)NNC(=O)c1ccccc1Br` stands 11.6 µM [falling, single point]; under `O=C(Nc1ccc(N2CCCC2)cc1)c1ccccc1F`, 1.64 µM [falling, full curve]; under `Cc1ccc(NC(=O)COc2cccc(-n3cnnn3)c2)cc1[N+](=O)[O-]`, 1.12 µM [rising, partial curve, poor fit].

As to `Cc1cccc(-n2nnc(C(=O)NCc3ccc4c(c3)OCO4)c2N)c1`, the concentration at half-maximal activity (AC50) under setting [1] was 7.94 µM [falling, partial curve, poor fit]. The same measure, in the same setting: next, `CC1CC(C)CN(C(=O)c2ccc3ncsc3c2)C1` (centres undefined): 25.9 µM [rising, single point]; `Cc1ccc(C(=O)NC(=S)NNC(=O)c2ccccc2[N+](=O)[O-])cc1`: 32.6 µM [falling, single point]; `CCOC(=O)C1=C(C)NC2=C(C(=O)CCC2)C1c1cn(Cc2ccc(Cl)cc2Cl)nc1-c1ccccc1` (centres undefined): 7.08 µM [falling, full curve, poor fit].

As to `O=C(N/N=C/c1c[nH]c2ccccc12)c1cc2ccccc2o1`, the concentration at half-maximal activity (AC50) under setting [1] was 35.5 µM [falling, single point]. On the same count and under the same terms, under `Cc1cc(C)cc(NC(=O)c2cc(S(=O)(=O)NCc3ccco3)ccc2F)c1` stands 8.91 µM [falling, partial curve, poor fit]; under `CC(C)(C)OC(=O)N1CCN(C(=O)c2[nH]cnc2C(=O)Nc2nccs2)CC1`, 0.326 µM [falling, partial curve, poor fit]. Same read-out and setting: next, `COC(=O)c1cccc(N(CC(=O)NC2CCCC2)C(=O)CNC(=O)c2cccs2)c1`: 11.2 µM [falling, partial curve, poor fit]. The same measure, in the same setting: under `Cc1sc(N/N=C/c2cccnc2)nc1-c1ccc(Cl)cc1` stands 0.326 µM [rising, full curve, poor fit].

In the case of `COc1ccc(NC(=O)Cn2nnc(-c3ccccc3NS(=O)(=O)c3ccc(OC)cc3)n2)cc1`, under setting [2], the AC50 was 3.26 µM [falling, full curve]. Turning to `COc1ccc(/C=N/NC(=O)c2ccccc2O)cc1Cn1cc([N+](=O)[O-])cn1`, the concentration at half-maximal activity (AC50) under setting [1] was 8.91 µM [falling, partial curve].

For the origin of these results see PubChem BioAssay AID493014 (National Center for Advancing Translational Sciences (NCATS), 2011).
